# The other results are listed elsewhere or left out.
# Experiments:
# Experiment in all cases: glycan array binding signal (z-score within array); higher = stronger binding
# Details in all cases: glycan notation: IUPAC condensed, linker removed
# Gal(a1-3)Gal(b1-3)GlcNAc = biological target: Gal(a1-3)Gal(b1-3)GlcNAc
# Procedure, shortened: (§1)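 Negative Z-scores can be read as non-binding. The Z-score is calculated within each array and then averaged across arrays of one protein sequence at different concentrations or buffers and across linkers. Arrays, 3228 in all, were curated from the Consortium for Functional Glycomics database and kept only where the protein sequence was available.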
# [1] = biological target: Gal(a1-3)Gal(b1-3)GlcNAc(b1-2)Man
# Procedure, shortened: as §1
# [2] = biological target: Gal(a1-3)Gal(b1-3)GlcNAc(b1-2)Man(a1-3)[Gal(a1-3)Gal(b1-3)GlcNAc(b1-2)Man(a1-6)]Man(b1-4)GlcNAc(b1-4)GlcNAc
# Procedure, shortened: as §1
# [3] = biological target: Gal(a1-3)Gal(b1-3)GlcNAc(b1-3)GalNAc
# Procedure, shortened: as §1
# [4] = biological target: Gal(a1-3)Gal(b1-3)GlcNAc(b1-6)GalNAc
# Procedure, shortened: as §1
# [5] = biological target: Gal(a1-3)Gal(b1-3)[Fuc(a1-4)]GlcNAc(b1-2)Man(a1-3)[Gal(a1-3)Gal(b1-3)[Fuc(a1-4)]GlcNAc(b1-2)Man(a1-6)]Man(b1-4)GlcNAc(b1-4)GlcNAc
# Procedure, shortened: as §1
# Gal(a1-3)Gal(b1-4)Glc = biological target: Gal(a1-3)Gal(b1-4)Glc
# Procedure, shortened: as §1
# Gal(a1-3)Gal(b1-4)GlcNAc = biological target: Gal(a1-3)Gal(b1-4)GlcNAc
# Procedure, shortened: as §1
# [6] = biological target: Gal(a1-3)Gal(b1-4)GlcNAc(b1-2)Man
# Procedure, shortened: as §1
# [7] = biological target: Gal(a1-3)Gal(b1-4)GlcNAc(b1-2)Man(a1-3)[Gal(a1-3)Gal(b1-4)GlcNAc(b1-2)Man(a1-6)]Man(b1-4)GlcNAc(b1-4)GlcNAc
# Procedure, shortened: as §1
# [8] = biological target: Gal(a1-3)Gal(b1-4)GlcNAc(b1-3)GalNAc
# Procedure, shortened: as §1
# [9] = biological target: Gal(a1-3)Gal(b1-4)GlcNAc(b1-6)GalNAc
# Procedure, shortened: as §1
# [10] = biological target: Gal(a1-3)Gal(b1-4)[Fuc(a1-3)]GlcNAc
# Procedure, shortened: as §1
# [11] = biological target: Gal(a1-3)Gal(b1-4)[Fuc(a1-3)]GlcNAc(b1-2)Man(a1-3)[Gal(a1-3)Gal(b1-4)[Fuc(a1-3)]GlcNAc(b1-2)Man(a1-6)]Man(b1-4)GlcNAc(b1-4)GlcNAc
# Procedure, shortened: as §1
# Gal(a1-3)GalNAc = biological target: Gal(a1-3)GalNAc
# Procedure, shortened: as §1
# [12] = biological target: Gal(a1-3)[Gal(a1-4)]Gal(b1-4)GlcNAc
# Procedure, shortened: as §1
# [13] = biological target: Gal(a1-4)Gal(b1-3)GlcNAc(b1-2)Man(a1-3)[Gal(a1-4)Gal(b1-3)GlcNAc(b1-2)Man(a1-6)]Man(b1-4)GlcNAc(b1-4)GlcNAc
# Procedure, shortened: as §1
# Gal(a1-4)Gal(b1-4)Glc = biological target: Gal(a1-4)Gal(b1-4)Glc
# Procedure, shortened: as §1
# Gal(a1-4)Gal(b1-4)GlcNAc = biological target: Gal(a1-4)Gal(b1-4)GlcNAc
# Procedure, shortened: as §1
# [14] = biological target: Gal(a1-4)Gal(b1-4)GlcNAc(b1-2)Man(a1-3)[Gal(a1-4)Gal(b1-4)GlcNAc(b1-2)Man(a1-6)]Man(b1-4)GlcNAc(b1-4)GlcNAc
# Procedure, shortened: as §1
# [15] = biological target: Gal(a1-4)Gal(b1-4)GlcNAc(b1-3)Gal(b1-4)Glc
# Procedure, shortened: as §1
# Gal(a1-4)GlcNAc = biological target: Gal(a1-4)GlcNAc
# Procedure, shortened: as §1
# Gal(a1-6)Glc = biological target: Gal(a1-6)Glc
# Procedure, shortened: as §1
# Gal(b1-2)Gal = biological target: Gal(b1-2)Gal
# Procedure, shortened: as §1
# Gal(b1-3)Gal = biological target: Gal(b1-3)Gal
# Procedure, shortened: as §1
# Gal(b1-3)Gal(b1-4)GlcNAc = biological target: Gal(b1-3)Gal(b1-4)GlcNAc
# Procedure, shortened: as §1
# Gal(b1-3)GalNAc = biological target: Gal(b1-3)GalNAc
# Procedure, shortened: as §1
# [16] = biological target: Gal(b1-3)GalNAc(a1-3)[Fuc(a1-2)]Gal(b1-4)Glc
# Procedure, shortened: as §1
# [17] = biological target: Gal(b1-3)GalNAc(a1-3)[Fuc(a1-2)]Gal(b1-4)GlcNAc
# Procedure, shortened: as §1
# Gal(b1-3)GalNAc(b1-3)Gal = biological target: Gal(b1-3)GalNAc(b1-3)Gal
# Procedure, shortened: as §1
# [18] = biological target: Gal(b1-3)GalNAc(b1-3)Gal(a1-4)Gal(b1-4)Glc
# Procedure, shortened: as §1
# [19] = biological target: Gal(b1-3)GalNAc(b1-4)Gal(b1-4)Glc
# Procedure, shortened: as §1
# [20] = biological target: Gal(b1-3)GalNAc(b1-4)[Neu5Ac(a2-3)]Gal(b1-4)Glc
# Procedure, shortened: as §1
# Gal(b1-3)GlcNAc = biological target: Gal(b1-3)GlcNAc
# Procedure, shortened: as §1
# [21] = biological target: Gal(b1-3)GlcNAc(a1-3)Gal(b1-4)GlcNAc
# Procedure, shortened: as §1
# [22] = biological target: Gal(b1-3)GlcNAc(a1-6)Gal(b1-4)GlcNAc
# Procedure, shortened: as §1
# Gal(b1-3)GlcNAc(b1-2)Man = biological target: Gal(b1-3)GlcNAc(b1-2)Man
# Procedure, shortened: as §1
# [23] = biological target: Gal(b1-3)GlcNAc(b1-2)Man(a1-3)[Gal(b1-3)GlcNAc(b1-2)Man(a1-6)]Man(b1-4)GlcNAc(b1-4)GlcNAc
# Procedure, shortened: as §1
binder,measurement,setting,value
GS13971A-bth-447-22-447 (Bacteroides thetaiotaomicron) (protein) EDVDNERSKGMFSASQSGFSTIEVYDLGPLNKIDLSIAKAGLEDTGGTVTFSVEQSLLDSLNNADGTSYQLLPPECYTIENATYSVSPGGDRRVTGGSLVYDPHKIYNLCGFDELKYVLPLRVSSTGTPMNSDRTATLYGFIVKEAIVRLASTGGDFVVEGGTTTSPMNLDTEISFENEWDLTTSFATKGADYVDNYNSANSTYYIPLPSDFYTLPDVTIAKGKTTGGSAISLLGETLPPGNYLLPVSLGGLSGQGDASINIDKETVANYFVIKQGGPINRDHWTVTANTEEKTGEVSAAYPHNGQTISLIDGEINTFWHSKWQGGEVAPPYEIILDMGKENSVSQLGLIARQNALTSMNLEIYAGDDGETWNLIGKYFFDGSIKTEQMVPVKACDARWIRIYIPTLGSGSSVGHLAEIYVYGTDK,glycan array binding signal (z-score),Gal(a1-3)Gal(b1-3)GlcNAc,-0.382
same,glycan array binding signal (z-score),[1],0.006
same,glycan array binding signal (z-score),[2],-0.916
same,glycan array binding signal (z-score),[3],-0.436
same,glycan array binding signal (z-score),[4],-0.632
same,glycan array binding signal (z-score),[5],0.437
same,glycan array binding signal (z-score),Gal(a1-3)Gal(b1-4)Glc,0.174
same,glycan array binding signal (z-score),Gal(a1-3)Gal(b1-4)GlcNAc,-1.02
same,glycan array binding signal (z-score),[6],-0.148
same,glycan array binding signal (z-score),[7],0.313
same,glycan array binding signal (z-score),[8],0.741
same,glycan array binding signal (z-score),[9],-0.373
same,glycan array binding signal (z-score),[10],0.076
same,glycan array binding signal (z-score),[11],0.646
same,glycan array binding signal (z-score),Gal(a1-3)GalNAc,-0.362
same,glycan array binding signal (z-score),[12],3.1
same,glycan array binding signal (z-score),[13],0.513
same,glycan array binding signal (z-score),Gal(a1-4)Gal(b1-4)Glc,0.472
same,glycan array binding signal (z-score),Gal(a1-4)Gal(b1-4)GlcNAc,-0.575
same,glycan array binding signal (z-score),[14],0.056
same,glycan array binding signal (z-score),[15],-0.254
same,glycan array binding signal (z-score),Gal(a1-4)GlcNAc,-0.681
same,glycan array binding signal (z-score),Gal(a1-6)Glc,0.631
same,glycan array binding signal (z-score),Gal(b1-2)Gal,-1.44
same,glycan array binding signal (z-score),Gal(b1-3)Gal,-0.681
same,glycan array binding signal (z-score),Gal(b1-3)Gal(b1-4)GlcNAc,-1
same,glycan array binding signal (z-score),Gal(b1-3)GalNAc,0.172
same,glycan array binding signal (z-score),[16],-0.865
same,glycan array binding signal (z-score),[17],0.222
same,glycan array binding signal (z-score),Gal(b1-3)GalNAc(b1-3)Gal,0.246
same,glycan array binding signal (z-score),[18],-0.541
same,glycan array binding signal (z-score),[19],1.41
same,glycan array binding signal (z-score),[20],-0.575
same,glycan array binding signal (z-score),Gal(b1-3)GlcNAc,-0.27
same,glycan array binding signal (z-score),[21],-0.741
same,glycan array binding signal (z-score),[22],-0.86
same,glycan array binding signal (z-score),Gal(b1-3)GlcNAc(b1-2)Man,0.612
same,glycan array binding signal (z-score),[23],0.413

# Two records drawn at random from those above, as already listed:
binder,measurement,setting,value
GS13971A-bth-447-22-447 (Bacteroides thetaiotaomicron) (protein) EDVDNERSKGMFSASQSGFSTIEVYDLGPLNKIDLSIAKAGLEDTGGTVTFSVEQSLLDSLNNADGTSYQLLPPECYTIENATYSVSPGGDRRVTGGSLVYDPHKIYNLCGFDELKYVLPLRVSSTGTPMNSDRTATLYGFIVKEAIVRLASTGGDFVVEGGTTTSPMNLDTEISFENEWDLTTSFATKGADYVDNYNSANSTYYIPLPSDFYTLPDVTIAKGKTTGGSAISLLGETLPPGNYLLPVSLGGLSGQGDASINIDKETVANYFVIKQGGPINRDHWTVTANTEEKTGEVSAAYPHNGQTISLIDGEINTFWHSKWQGGEVAPPYEIILDMGKENSVSQLGLIARQNALTSMNLEIYAGDDGETWNLIGKYFFDGSIKTEQMVPVKACDARWIRIYIPTLGSGSSVGHLAEIYVYGTDK,glycan array binding signal (z-score),Gal(a1-4)GlcNAc,-0.681
same,glycan array binding signal (z-score),[8],0.741

# From the supplement of paper PMC8728848
